This is an account of results in PubChem BioAssay (NCATS).

Amino acid sequences for entries named in this document (tags omitted). A change or cut given only in a name is not applied to a line headed by its entry.
UniProt P03372, whole entry, looked up: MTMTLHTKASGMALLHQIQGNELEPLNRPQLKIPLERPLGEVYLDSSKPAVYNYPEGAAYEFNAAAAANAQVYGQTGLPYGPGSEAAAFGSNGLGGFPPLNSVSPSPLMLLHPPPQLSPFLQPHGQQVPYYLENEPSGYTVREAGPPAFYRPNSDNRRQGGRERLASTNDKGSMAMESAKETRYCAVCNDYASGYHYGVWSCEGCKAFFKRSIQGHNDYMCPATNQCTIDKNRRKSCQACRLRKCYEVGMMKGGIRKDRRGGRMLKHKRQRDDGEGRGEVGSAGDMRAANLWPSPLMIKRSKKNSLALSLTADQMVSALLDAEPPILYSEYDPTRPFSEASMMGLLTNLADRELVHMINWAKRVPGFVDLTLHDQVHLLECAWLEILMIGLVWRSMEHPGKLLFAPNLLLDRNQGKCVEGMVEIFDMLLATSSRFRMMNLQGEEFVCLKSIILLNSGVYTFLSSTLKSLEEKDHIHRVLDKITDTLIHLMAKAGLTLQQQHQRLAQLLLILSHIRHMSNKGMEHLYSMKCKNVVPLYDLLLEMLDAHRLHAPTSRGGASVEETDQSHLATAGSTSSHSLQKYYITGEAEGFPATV
UniProt Q03181: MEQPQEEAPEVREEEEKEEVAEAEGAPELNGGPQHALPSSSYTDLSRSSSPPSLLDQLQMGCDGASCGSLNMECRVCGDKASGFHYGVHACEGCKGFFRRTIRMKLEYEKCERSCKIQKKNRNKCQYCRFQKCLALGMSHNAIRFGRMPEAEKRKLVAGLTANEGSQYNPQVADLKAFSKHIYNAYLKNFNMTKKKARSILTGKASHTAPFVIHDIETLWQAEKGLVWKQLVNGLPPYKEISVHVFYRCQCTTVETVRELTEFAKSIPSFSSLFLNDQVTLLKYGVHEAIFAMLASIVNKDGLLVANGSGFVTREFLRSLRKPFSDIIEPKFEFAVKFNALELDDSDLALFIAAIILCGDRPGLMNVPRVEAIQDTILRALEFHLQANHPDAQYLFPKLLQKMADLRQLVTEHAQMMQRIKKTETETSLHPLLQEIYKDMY
UniProt P19793: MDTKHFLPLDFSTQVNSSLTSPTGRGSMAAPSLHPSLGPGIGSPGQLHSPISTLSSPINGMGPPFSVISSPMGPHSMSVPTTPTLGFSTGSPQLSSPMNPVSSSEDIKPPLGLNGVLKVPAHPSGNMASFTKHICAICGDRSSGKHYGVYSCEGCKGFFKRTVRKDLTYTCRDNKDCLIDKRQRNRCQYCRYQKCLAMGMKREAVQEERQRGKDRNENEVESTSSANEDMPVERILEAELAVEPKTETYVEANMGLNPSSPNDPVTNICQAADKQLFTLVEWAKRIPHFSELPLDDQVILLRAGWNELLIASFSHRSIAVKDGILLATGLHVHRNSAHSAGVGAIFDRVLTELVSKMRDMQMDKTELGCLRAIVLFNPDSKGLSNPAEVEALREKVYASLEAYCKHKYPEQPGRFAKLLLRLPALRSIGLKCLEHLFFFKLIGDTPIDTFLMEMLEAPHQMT
UniProt P10828: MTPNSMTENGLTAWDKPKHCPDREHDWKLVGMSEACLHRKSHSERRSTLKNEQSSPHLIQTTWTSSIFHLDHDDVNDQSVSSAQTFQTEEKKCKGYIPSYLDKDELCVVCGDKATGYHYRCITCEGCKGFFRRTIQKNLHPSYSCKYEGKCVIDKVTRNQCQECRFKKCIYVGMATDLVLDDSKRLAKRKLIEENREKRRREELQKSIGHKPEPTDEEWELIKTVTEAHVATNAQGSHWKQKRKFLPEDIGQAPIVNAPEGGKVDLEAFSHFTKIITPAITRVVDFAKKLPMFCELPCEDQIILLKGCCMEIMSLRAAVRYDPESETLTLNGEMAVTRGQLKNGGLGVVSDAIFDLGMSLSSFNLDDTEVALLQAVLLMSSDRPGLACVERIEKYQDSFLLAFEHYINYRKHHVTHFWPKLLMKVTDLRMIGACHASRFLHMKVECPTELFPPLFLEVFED
UniProt Q07869: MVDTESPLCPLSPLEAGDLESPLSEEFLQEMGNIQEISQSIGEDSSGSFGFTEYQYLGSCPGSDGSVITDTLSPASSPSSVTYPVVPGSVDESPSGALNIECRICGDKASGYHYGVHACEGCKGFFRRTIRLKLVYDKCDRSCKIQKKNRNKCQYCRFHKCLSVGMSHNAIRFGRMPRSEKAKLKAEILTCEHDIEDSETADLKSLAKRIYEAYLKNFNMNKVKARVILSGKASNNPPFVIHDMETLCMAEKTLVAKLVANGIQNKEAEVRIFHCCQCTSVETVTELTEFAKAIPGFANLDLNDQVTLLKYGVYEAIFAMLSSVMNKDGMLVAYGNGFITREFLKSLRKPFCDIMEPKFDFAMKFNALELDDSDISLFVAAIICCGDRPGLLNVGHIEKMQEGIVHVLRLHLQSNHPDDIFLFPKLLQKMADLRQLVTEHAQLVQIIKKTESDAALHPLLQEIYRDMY

Assay [1] has as its target Estrogen receptor (Homo sapiens) (UniProt P03372). Kind of assay: qHTS assay for small molecule antagonists of estrogen receptor alpha signaling (AID 588513; active = well fitted curve in the direction sought with a large enough effect in the signal ratio, with a control signal flat, not every such curve was filed as active; the % refers to the signal ratio; also: % is scaled to controls: 0 for no effect and ±100 for the full control effect). To be noted: ER-alpha-UAS-bla HEK293, beta-lactamase ratio, antagonist mode; at 76.9 µM (top of the series). In outline: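 Beta-lactamase reporter, antagonist mode, HEK 293 GripTite cells; 0.5nM E2 stimulus, 18 h, 37 C; CCF4 dye 2 h RT; fluorescence. IC50 and efficacy from Hill fits, normalized to E2 and DMSO.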
For orientation: qHTS replaces the single test concentration by a dilution series.

The target is the same in assay [2]. Kind of assay: qHTS assay for small molecule agonists of estrogen receptor alpha signaling (AID 588514).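 Also: 0% = vehicle only and 100% = reference agonist; nearly all actives have a fitted effect of over 70% in size.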 To be noted: ER-alpha-UAS-bla HEK293, beta-lactamase ratio, 18 h, percent of full estradiol response, vehicle zero; at 76.8 µM (top of the series). In outline: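 Reporter-gene assay. […] controls beta-lactamase in HEK 293 GripTite cells; after 18 hrs with compound, CCF4 substrate is added for 2 hrs and fluorescence is read.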

Assay [3] has as its target Bile acid receptor (Homo sapiens) (UniProt Q96RI1). Kind of assay: qHTS assay for small molecule antagonists of farnesoid X receptor signaling (AID 588526). Also: % is scaled to controls: 0 for no effect and ±100 for the full control effect. The settings on record: HEK293T FXR-UAS-bla, beta-lactamase ratio, antagonist mode; at 76.7 µM (top of the series). In outline: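 Beta-lactamase reporter antagonist mode: HEK293T FXR-UAS-bla cells, titrated compound, CDCA stimulation, 16 h 37 C, CCF4 dye 2 h RT. Data normalized to CDCA 50 uM and DMSO; Hill-fit IC50.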

The target is the same in assay [4]. Kind of assay: qHTS assay for small molecule agonists of farnesoid X receptor signaling (AID 588527).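 Also: 0% = vehicle basal and 100% = reference agonist.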 To be noted: HEK293T FXR-UAS-bla, beta-lactamase ratio, 16 h; stronger effect = higher value. The method in brief:
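Quantitative HTS used FXR-UAS-bla HEK293T cells with 16 h compound incubation at 37 C. EC50 values came from concentration-response curves normalized to chenodeoxycholic acid.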

In assay [5] the target is Glucocorticoid receptor (Homo sapiens) (UniProt P04150). As to the kind of experiment: qHTS assay for small molecule agonists of glucocorticoid receptor signaling (AID 588532; active = well fitted curve in the direction sought with a large enough effect in the signal ratio, with a control signal flat; the % refers to the signal ratio;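 also: 100% = dexamethasone at 0.1 µM and 0% = DMSO only wells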). The settings on record: HeLa MMTV-bla, beta-lactamase ratio, agonist, 18 h; stronger effect = higher value; percent of dexamethasone control, DMSO zero. The method in brief: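 Quantitative HTS using CellSensor MMTV-bla HeLa cells in charcoal/dextran-treated serum; compounds tested up to 92 uM. After 18 h at 37 C, CCF4 dye reported reporter induction.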

Assay [6] has the same target. Kind of assay: qHTS assay for small molecule antagonists of glucocorticoid receptor signaling (AID 588533; active = well fitted inhibition curve with a large enough effect in the signal ratio, with a control signal flat, not every such curve was filed as active; the % refers to the signal ratio;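 also: cells stimulated with 2 nM dexamethasone as agonist; % is scaled to controls: 0 for no effect and ±100 for the full control effect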). To be noted: HeLa MMTV-bla, GRE beta-lactamase ratio, antagonist mode, 18 h; at 76.8 µM (top of the series). The method in brief:
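Antagonist-mode qHTS: compound titrations added to GRE-bla HeLa cells, then dexamethasone 2 nM final; 18 h, 37 C. CCF4 FRET fluorescence normalized to dexamethasone and DMSO; IC50 from Hill fit.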

The target of assay [7] is Peroxisome proliferator-activated receptor delta (Homo sapiens) (UniProt Q03181). As to the kind of experiment: qHTS assay for small molecule agonists of peroxisome proliferator-activated receptor delta signaling (AID 588534). To be noted: HEK293T PPARdelta-UAS-bla, beta-lactamase ratio, 18 h; at 76.7 µM (top of the series). In outline:
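Reporter cells were plated and held 5 hrs at 37 C before compounds were added. After 18 hrs at 37 C, CCF4 dye was loaded for 2 hrs at RT and fluorescence measured.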

The nature of assay [8]: qHTS assay for small molecule antagonists of peroxisome proliferator-activated receptor delta signaling (AID 588535; active = well fitted inhibition curve with a large enough effect in the signal ratio, with a control signal flat, not every such curve was filed as active; the % refers to the signal ratio;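 as to max response: cells co-treated with a PPAR-delta agonist as stimulator during compound exposure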). To be noted: HEK293T PPARd-UAS-bla, beta-lactamase FRET ratio, 18 h; 460 nm channel. In outline: (§1)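 Cell-based beta-lactamase assay in antagonist mode: 4000 HEK293T PPAR-delta-UAS-bla cells per well, 5 hr preincubation then 18 hr compound incubation at 37 C. IC50 obtained by Hill equation fitting.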

Assay [9] has as its target Peroxisome proliferator-activated receptor delta (Homo sapiens) (UniProt Q03181). The description is as above. The settings on record: HEK293T PPARd-UAS-bla, beta-lactamase FRET ratio, 18 h; at 76.7 µM (top of the series). The method in brief: as §1
The target of assay [10] is Peroxisome proliferator-activated receptor gamma (Homo sapiens) (UniProt P37231). Kind of assay: qHTS assay for small molecule agonists of peroxisome proliferator-activated receptor gamma signaling (AID 588536; active = well fitted curve in the direction sought with a large enough effect in the signal ratio, with a control signal flat, not every such curve was filed as active; the % refers to the signal ratio). To be noted: HEK293 PPARg-UAS-bla, beta-lactamase ratio, 16 h, percent of rosiglitazone response, DMSO as zero; at 76.7 µM (top of the series). The method in brief: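 HEK293 UAS-bla reporter line, 1% charcoal/dextran FBS; titration, 16 h, 37 C; CCF4 loading 2 h RT; fluorescence 460/530 nm. Normalized to rosiglitazone 2 uM = 100%, DMSO = 0%.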

The target is the same in assay [11]. Kind of assay: qHTS assay for small molecule antagonists of peroxisome proliferator-activated receptor gamma signaling (AID 588537; active = well fitted inhibition curve with a large enough effect in the signal ratio, with a control signal flat, not every such curve was filed as active; the % refers to the signal ratio;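 also: reporter cells co-stimulated with 50 nM rosiglitazone agonist during compound treatment; % of control where 0% means no effect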). The settings on record: HEK293 PPARg-UAS-bla, beta-lactamase ratio, antagonist mode; at 76.8 µM (top of the series). The method in brief: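 Inhibitors of agonist-stimulated UAS-bla reporter activity were sought in HEK293 cells; rosiglitazone (50 nM) defined full signal and DMSO baseline. Curves fitted to Hill model gave IC50 and efficacy.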

Assay [12] concerns the target Vitamin D3 receptor (Homo sapiens) (UniProt P11473). As to the kind of experiment: qHTS assay for small molecule antagonists of vitamin D receptor signaling (AID 588541).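 Also: receptor activated by calcitriol during compound treatment; % is scaled to controls: 0 for no effect and ±100 for the full control effect.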 To be noted: HEK293T VDR-UAS-bla, beta-lactamase ratio, antagonist mode; at 76.7 µM (top of the series). In outline:
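Antagonist-mode beta-lactamase reporter assay: HEK293T VDR-UAS-bla cells were exposed to titrated compound alongside 1-alpha,25-dihydroxyvitamin D3 at 3 nM final for 16 h. Values were normalized to the 50 nM agonist control and DMSO basal, with IC50 and efficacy from Hill equation fits.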

Assay [13] has the same target. As to the kind of experiment: qHTS assay for small molecule agonists of vitamin D receptor signaling (AID 588543).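 Also: 0% = DMSO basal and 100% = reference agonist control.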 The settings on record: HEK293T VDR-UAS-bla, beta-lactamase ratio, 16 h; at 76.8 µM (top of the series). In outline:
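β-lactamase reporter, VDR-UAS-bla HEK293T, agonist mode. Cells plated 5 h at 37 °C, compound titration 16 h at 37 °C, CCF4 dye 2 h RT, ratio 460/530 nm. Hill fit → EC50, efficacy vs 50 nM 1α,25-(OH)2D3.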

Assay [14] can be described thus: qHTS assay for small molecule agonists of retinoid X receptor alpha signaling (AID 588544).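 As to activation: 0% = DMSO basal wells and 100% = reference agonist.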 The settings on record: HEK293T RXRa-UAS-bla, beta-lactamase reporter, 18 h; 530 nm emission.
Assay [15] concerns the target Retinoic acid receptor RXR-alpha (Homo sapiens) (UniProt P19793). The description is as above. The settings on record: HEK293T RXRa-UAS-bla, beta-lactamase reporter, 18 h; at 76.7 µM (top of the series).
Assay [16] has as its target Thyroid hormone receptor beta (Homo sapiens) (UniProt P10828). Kind of assay: qHTS assay for small molecule agonists of thyroid hormone receptor beta signaling (AID 588545).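 Also: 0% = DMSO only and 100% = 10 nM T3.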 To be noted: TR-UAS-bla GripTite HEK 293, beta-lactamase ratio, agonist mode, 18 h, percent of T3 response, DMSO as zero; at 76.7 µM (top of the series). The method in brief:
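TR-UAS-bla-GripTite HEK 293 cells in medium with 2% charcoal/dextran FBS, 0.1 mM NEAA and 1 mM sodium pyruvate were treated with titrated compounds for 18 hrs at 37 C. Beta-lactamase reporter was read with CCF4 dye (ex 405, em 460/530 nm); EC50 from Hill fits.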

A short description of assay [17]: qHTS assay for small molecule antagonists of retinoid X receptor alpha signaling (AID 588546; active = well fitted inhibition curve with a large enough effect in the signal ratio, with a control signal flat, not every such curve was filed as active; the % refers to the signal ratio). The settings on record: HEK293T RXRa-UAS-bla, beta-lactamase ratio, antagonist mode; measured here: W530 green channel, cytotoxicity proxy. In outline: (§2)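 Beta-lactamase reporter inhibition, read as CCF4 fluorescence ratio (ex 405, em 460/530 nm) after 2 h at RT. HEK293T UAS-bla cells, 2500/well, were stimulated with 9-cis-RA at 500 or 100 nM final alongside test compound for 18 h at 37 C.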

In assay [18] the target is Retinoic acid receptor RXR-alpha (Homo sapiens) (UniProt P19793). The assay is described as above. The settings on record: HEK293T RXRa-UAS-bla, beta-lactamase ratio, antagonist mode. The method in brief:
as §2

Assay [19] addresses Thyroid hormone receptor beta (Homo sapiens) (UniProt P10828). As to the kind of experiment: qHTS assay for small molecule antagonists of thyroid hormone receptor beta signaling (AID 588547; active = well fitted inhibition curve with a large enough effect in the signal ratio, with a control signal flat, not every such curve was filed as active; the % refers to the signal ratio). To be noted: TR-UAS-bla HEK293, beta-lactamase ratio, antagonist mode, 18 h. In outline: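 Inhibition of T3-driven (0.4nM final) beta-lactamase reporter activity was measured over 0.59 nM to 92 uM compound after 18 h at 37 C. The cells were GripTite HEK293 TR-UAS-bla in charcoal/dextran-stripped serum, with CCF4 ratio read-out and IC50 from Hill fits.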

In assay [20] the target is Peroxisome proliferator-activated receptor alpha (Homo sapiens) (UniProt Q07869). Kind of assay: qHTS assay for small molecule agonists of the peroxisome proliferator-activated receptor alpha (PPARalpha) signaling pathway (AID 651778; active = well fitted curve in the direction sought with a large enough effect; an effect the other way counts as inactive or inconclusive; also: % of control where 0% means no effect). The settings on record: PathHunter PPARalpha complementation, chemiluminescence, 6 h; stronger effect = higher value. In outline: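 Chemiluminescence from complemented enzyme reported PPARalpha activation in cells after 6 hr of compound treatment at 37 C. The detection reagent was incubated for 60 min at room temperature, and compounds were scored as agonists.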

Assay [21] can be described thus: qHTS assay for cell viability of the p53RE-bla HCT-116 cell line (AID 743292; active = well fitted curve in the direction sought with a large enough effect; an effect the other way counts as inactive or inconclusive; also: % is scaled to controls: 0 for no effect and ±100 for the full control effect; nearly all actives have a fitted effect of over 55% in size). The settings on record: p53RE-bla HCT-116 viability, ATP luminescence, 16 h; at 95 µM (top of the series). The method in brief:
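Readout: CellTiter-Glo luminescence after 30 min RT. Treatment: compounds in DMSO, 16 h, 37 C. Cells: CellSensor p53RE-bla HCT-116, 4,000/well, preincubated 5 h.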

For part of these data: What follows is the remainder of the data, with few or none of the hits. Inconclusive results are not listed. The list shows a part of the results, in another mix than the full data. Calls of active or inactive are those of the source. Unless noted, calls follow the shape of the full dose curve.

For `CCCCCCCC1CCC(=O)O1` (stereo unspecified), the activity, negative = inhibition in assay [1] was inactive: -2.09%; in assay [11], inactive: 2.75%. Moreover, the activation in [2] is inactive: 0.116%; in [4], inactive: 2.91%; in assay [5], inactive: 0.9%; in assay [7] it was inactive: 3.67%; in assay [10], inactive: -1.95%; in assay [13], inactive: 3.03%. In addition, the values for the activation in assay [15] and in [16] were inactive: 0% and inactive: -4.52%, respectively. The activity change, negative = inhibition in assay [3] was inactive: -1.92%; in assay [6], inactive: -0.275%; in assay [9], inactive: 17.2%; in assay [12] it was inactive: 3.03%. Further, the max response in [8] is -15.6%; in assay [14], -12.8%; in [17] it was -9.44%; in [18] it was inactive: 1.06%; in assay [20], inactive: -1.28%. Also, in assay [19], the activity change % (negative = inhibition) is inactive: 10.8%. The activity change, negative = cytotoxicity in assay [21] is inactive: 0.0504%.
